# Source: PubChem BioAssay AID504467 (National Center for Advancing Translational Sciences (NCATS), 2011)
# Screen size: about 330,000 compounds; about 7,700 (2.3%) were called active. Inconclusive results, whose numbers are uncertain, are shown with a selection of clear calls. Calls follow the shape of the dose curve; as a rule, active = well fitted inhibition curve with a large enough effect; inconclusive = small, poorly fitted or top-dose-only effect, or effect the other way; inactive = flat fitted curve, though single readings scatter. A potency beside an inconclusive call is a rough fit, not a confirmed value.
# Test: qHTS screen for small molecules that inhibit ELG1-dependent DNA repair in human embryonic kidney (HEK293T) cells expressing luciferase-tagged ELG1; also: nearly all actives have a fitted effect of over 55% in size
# Conditions: HEK293T ELG1-luciferase reporter, luminescence, 16 h, DNA damage induced by 5-fluorouridine; series mostly up to 46.1 µM
# Procedure, shortened: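 HEK293T cells expressing luciferase-tagged ELG1 (2,000/well) received 5-Fluorouridine plus compound or DMSO for 16 hr at 37 °C. Luciferase was read by ONE-Glo luminescence after 30 min at room temperature.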
# Potency is read from the fitted curve at half-maximal effect.
row,Compound,Potency
1,O=C1NC(=O)C(=Cc2ccc(-c3ccc(F)cc3O)o2)C(=O)N1,"inconclusive: 29.1 µM [inhibitor, single point]"
2,CCN(CC)C1=NC(=[N+](CC)CC)c2ccccc21,inactive
3,CCN(CC)c1ccc(N=Cc2c(O)n(CCc3ccc(OC)c(OC)c3)c(=O)[nH]c2=O)cc1,active: 2.59 µM
4,Cc1ccc(Cn2cc(C=O)c(-c3ccc(C)cc3)n2)cc1,"inconclusive: 16.4 µM [activator, partial curve]"
5,CN1C(=O)C(=Cc2ccc(SC3CCCCC3)o2)C(=O)N(C)C1=O,inactive
6,C=CCn1c(O)c(/C(CC)=N/NC(=S)Nc2ccccc2)c(=O)[nH]c1=O,"inconclusive: 13 µM [activator, partial curve]"
7,C=CCn1c(O)c(C(CC)=Nc2cccc(C(=O)O)c2)c(=O)[nH]c1=O,"inconclusive: 20.6 µM [activator, partial curve]"
8,O=c1c2ccccc2[nH]c(=S)n1-c1ccc2c(c1)OCCO2,"inconclusive: 20.6 µM [activator, partial curve]"
9,CCN1C(=O)c2ccccc2Sc2ccc(C(=O)N3CCC4(CC3)OCCO4)cc21,inactive
10,COc1ccc(CC2C(=O)N(c3ccccc3)C(=O)N(c3ccccc3)C2=O)c(OC)c1,"inconclusive: 29.1 µM [activator, partial curve, poor fit]"
11,COC12C(COC(N)=O)C3=C(C(=O)C(C)=C(N)C3=O)N1CC1C2N1C (configuration not stated),"inconclusive: 23.1 µM [inhibitor, partial curve, poor fit]"
12,CCOP(=O)(OCC)c1nc(-c2ccc(Cl)cc2)oc1NCc1ccccc1,active: 23.1 µM
13,CCCCC(=O)N/N=C/c1c(O)n(Cc2ccco2)c(=O)[nH]c1=O,inactive
14,CCOC(=O)c1c(C)n(CCOC)c2ccc(O)cc12,inactive
15,CCOc1ccc(-n2c(-c3cccs3)nc3ccccc3c2=O)cc1,inactive
16,CCOc1cc2c(cc1OCC)-n1cccc1C(c1ccccc1OC)NC2 (configuration not stated),inactive
17,O=C(NC(=O)c1c(F)cccc1F)Nc1cc(Cl)c(F)c(Cl)c1F,"inconclusive: 0.231 µM [inhibitor, single point]"
18,CCc1ccc2nc(N3CCC(C(=O)N4CCC5(CC4)OCCO5)CC3)sc2c1,"inconclusive: 4.61 µM [inhibitor, full curve]"
19,CCN(CC)c1ccc(N=Cc2c(O)n(Cc3ccco3)c(=O)[nH]c2=O)cc1,inactive
20,CCCCn1c(=O)c(C(=O)Nc2cnccn2)c(O)c2ccccc21,"inconclusive: 6.51 µM [inhibitor, single point]"
21,O=c1cccc2n1CC1CC2CN(c2ncnc3c2cnn3-c2ccccc2)C1 (configuration not stated),"inconclusive: 20.6 µM [activator, partial curve, poor fit]"
22,COC(=O)c1ccc(C(=O)OC)c(NC(=O)Oc2ccccc2)c1,"inconclusive: 20.6 µM [activator, single point]"
23,NC1=C([N+](=O)[O-])C(c2ccc3c(c2)OCO3)c2c(c3ccccc3oc2=O)O1 (configuration not stated),inactive

row,Compound,Potency
1,Nc1c(C(=O)OCC2CCCO2)c2nc3ccccc3nc2n1Cc1cccs1 (configuration not stated),"inconclusive: 5.8 µM [inhibitor, partial curve]"
2,CNC(=O)Oc1cccc(-c2cn3cc(OC(=O)NC)ccc3n2)c1,"inconclusive: 10.3 µM [activator, partial curve]"
3,COc1ccc(CCn2c(O)c(C=NCc3cccnc3)c(=O)[nH]c2=O)cc1OC,inactive
4,CC(=O)Nc1ccc(N=Cc2c(O)n(Cc3ccco3)c(=O)[nH]c2=O)cc1,"inconclusive: 0.146 µM [activator, full curve]"
5,CCC(C)N1C(=O)/C(=C\c2cnc(N(C)C)nc2)C(=O)NC1=S (configuration not stated),"inconclusive: 29.1 µM [activator, single point]"
6,COc1ccc(OC)c(-n2c(O)c(/C=C3\C(C)=Nc4ccccc43)c(=O)[nH]c2=O)c1,inactive
7,CCCCn1c(C)c(C(=O)OCC)c2c(CN3CCOCC3)c(O)ccc21,"inconclusive: 8.2 µM [inhibitor, partial curve]"
8,Cc1c(C(c2ccc(Cl)cc2Cl)c2c(O)c3ccccc3oc2=O)c(=O)n(-c2ccccc2)n1C (configuration not stated),"inconclusive: 0.231 µM [activator, single point]"
9,Cc1cccc(OCCn2cccc2/C=C2/C(=O)NC(=O)N(Cc3ccco3)C2=O)c1,"inconclusive: 20.6 µM [activator, single point]"
10,Cc1noc(C)c1C(=O)N1CCC2(CC1)OCCO2,"inconclusive: 16.4 µM [activator, single point]"
11,COc1ccc(NC(=O)CCOc2cc(C)ccc2C)cc1S(=O)(=O)N1CCCCC1,active: 23.1 µM
12,Clc1ccc2sc(C3CCNCC3)nc2c1,"inconclusive: 14.6 µM [activator, partial curve]"
13,COc1cc(/C=C/C(=O)c2c(O)n(CCc3ccccc3)c(=O)[nH]c2=O)ccc1O,"inconclusive: 32.6 µM [inhibitor, single point]"
14,CN(C)CCN=Cc1c(O)n(-c2cccc(C(F)(F)F)c2)c(=O)[nH]c1=O,inactive
15,COc1cccc(C(=O)C2CCCN(Cc3ccon3)C2)c1 (configuration not stated),inactive
16,O=C(CNC(=O)OCc1ccccc1)Nc1ccc(Br)cc1C(=O)c1ccccc1Cl,"inconclusive: 23.1 µM [inhibitor, single point]"
17,COc1ccc2[nH]c3c(c2c1)CCNC3C (configuration not stated),inactive
18,Cc1[nH]c2ccc(OC(F)(F)F)cc2c1CCNCc1ccc(Cl)cc1,inactive
19,Nc1ccc(N2CCN(Cc3ccccc3Cl)CC2)c(Cl)c1,inactive
20,Cc1nn(Cc2ccccc2)c(C)c1C(=O)OCC(=O)NC1CCS(=O)(=O)C1 (configuration not stated),inactive
21,O=C(c1ccc(N2CCN(CCO)CC2)nc1)N1CCOCC1,"inconclusive: 18.4 µM [activator, partial curve, poor fit]"
22,O=C1/C(=C\c2ccc(Cl)cc2Cl)N2CCC1CC2,"inconclusive: 14.6 µM [activator, partial curve, poor fit]"
23,CCOc1cc2c(cc1OCC)-n1cccc1C(c1c(O)cccc1OC)NC2 (configuration not stated),"inconclusive: 20.6 µM [inhibitor, single point]"

# Five compounds from above, ordered by molar mass, smallest number first.
row,Compound,Potency
10,Cc1noc(C)c1C(=O)N1CCC2(CC1)OCCO2,"inconclusive: 16.4 µM [activator, single point]"
22,O=C1/C(=C\c2ccc(Cl)cc2Cl)N2CCC1CC2,"inconclusive: 14.6 µM [activator, partial curve, poor fit]"
5,CCC(C)N1C(=O)/C(=C\c2cnc(N(C)C)nc2)C(=O)NC1=S (configuration not stated),"inconclusive: 29.1 µM [activator, single point]"
1,Nc1c(C(=O)OCC2CCCO2)c2nc3ccccc3nc2n1Cc1cccs1 (configuration not stated),"inconclusive: 5.8 µM [inhibitor, partial curve]"
16,O=C(CNC(=O)OCc1ccccc1)Nc1ccc(Br)cc1C(=O)c1ccccc1Cl,"inconclusive: 23.1 µM [inhibitor, single point]"

# The results go on.

row,Compound,Potency
1,O=C1NC(=O)C(CCc2ccncc2)(Cc2ccc(OCc3ccccc3)cc2)C(=O)N1,"inconclusive: 4.61 µM [inhibitor, single point]"
2,C[C@@H]1C[C@@H]2O[C@H]2/C=C\C=C\C(=O)Cc2c(Cl)c(O)cc(O)c2C(=O)O1,"inconclusive: 2.31 µM [inhibitor, partial curve]"
3,O=P(NC(c1ccccc1)c1ccccc1)(Oc1ccccc1)Oc1ccccc1,"inconclusive: 23.1 µM [inhibitor, partial curve, poor fit]"
4,Cc1nc2cc(-c3cccc(F)c3)nn2c(C)c1CCC(=O)N1CCC2(CC1)OCCO2,inactive
5,O=c1[nH]c(=S)n(-c2cccc(C(F)(F)F)c2)c(O)c1C=NCCN1CCNCC1,"inconclusive: 4.61 µM [inhibitor, single point]"
6,N#Cc1ccccc1Cn1cc(C(=O)c2cccs2)c2ccccc21,"inconclusive: 16.4 µM [inhibitor, partial curve, poor fit]"
7,CCCCCCOc1ccc(CN2CCN(CC)CC2)cc1,"inconclusive: 5.8 µM [activator, partial curve]"
8,O=C(c1cc2cc(F)ccc2[nH]1)N1CCC2(CC1)OCCO2,"inconclusive: 13 µM [activator, partial curve, poor fit]"
9,COc1ccc(C2CC(c3c(O)n(CCc4ccccc4)c(=O)[nH]c3=O)=NN2)cc1OC (configuration not stated),"inconclusive: 23.1 µM [inhibitor, partial curve]"
10,CN(C)c1ccc(C(=O)N/N=C/C23CC[C@@H](O)CC2(O)CC[C@@H]2[C@@H]3CCC3(C)C(C4=CC(=O)OC4)CCC23O)cc1 (some centres not stated),active: 8.2 µM
11,Oc1cc(O)cc(/C=C/c2ccc(O)cc2O)c1,"inconclusive: 23.1 µM [activator, partial curve]"
12,COC(=O)C1=C(c2ccc(OC(F)(F)F)cc2)C[C@@H]2CC[C@H]1N2C(=O)NCCOc1ccccc1Cl,"inconclusive: 16.4 µM [inhibitor, single point]"
13,COc1ccc(C2=CCC3CCCCN3C2)cc1OC (configuration not stated),"inconclusive: 20.6 µM [activator, partial curve, poor fit]"
14,CCc1ccc(N2C(=O)NC(=O)/C(=C/c3cccn3CCOc3ccc(C(C)CC)cc3)C2=O)cc1 (configuration not stated),"inconclusive: 8.2 µM [activator, partial curve]"
15,CCOC(=O)c1c(N)n(CCN2CCCCC2)c2nc3ccccc3nc12,"inconclusive: 14.6 µM [inhibitor, partial curve, poor fit]"
16,O=Cc1cn(Cc2ccccc2F)c2ccccc12,"inconclusive: 29.1 µM [inhibitor, single point]"
17,COC(=O)C1=C(c2cccc3c2S(=O)(=O)c2ccccc2-3)C[C@@H]2CC[C@H]1N2C(=O)N1CCc2cc(OC)c(OC)cc2C1,"inconclusive: 20.6 µM [inhibitor, single point]"
18,O=c1[nH]c(=S)[nH]c(O)c1N=Nc1ccc(S(=O)(=O)N2CCOCC2)cc1,"inconclusive: 3.66 µM [inhibitor, single point]"
19,CCOC(=O)c1ccccc1N,inactive
20,S=P(Nn1cnnc1)(c1ccc(Br)cc1)c1ccc(Br)cc1,"inconclusive: 29.1 µM [inhibitor, single point]"
21,COC(=O)C1=C(c2ccc(C(C)=O)cc2)C[C@@H]2CC[C@H]1N2C(=O)NCCCOC(C)C,"inconclusive: 23.1 µM [activator, single point]"
